# In US8105745B2, “Radiation crosslinker” (National University of Singapore, priority 2005, dated 2012):
# Experiment: film retention after 254-nm DUV photocrosslinking and development, PSSH film
# From the text: FIG. 1 Normalized film thickness retention for (squares) PSSH (Mw=530 k) with I deposited from MeOH solution (dotted line as visual guide), photoexposed and developed with H2O; (diamond) PSSH with V, H2O, developed with H2O; (upright triangles) PSSNa (Mw=70 k) with V, H2O, developed with MeOH; (inverted triangle) PDAMC1 (Mw=400 k) with V, H2O, developed 3:1 i-PrOH—H2O; (circles) PEDT:PSSTMA conducting polyelectrolyte complex with V, H2O, developed with H2O. Starting film thickness was between 50-200 nm. Film thickness was measured by profilometry or ellipsometry, before and after development. Typically films with the appropriate concentration of the crosslinker were spin-cast onto clean pristine or APS-treated Si wafers, dehydrated at 100° C. for 5 min (PSSH and PEDT:PSSTMA) or more strongly at 130° C. for 20 min (PSSNa and PDAMC1) in the glovebox, exposed to 254-nm DUV (ca. 1 mW cm^−2, 3-5 min) in nitrogen, and developed accordingly. A typical error bar is indicated. […]
# In this way, a poly(styrene sulfonic acid) (PSSH) film deposited from MeOH solution was successfully crosslinked with 1-10 wt % I upon DUV exposure. […] Therefore the film retention measured here is solely due to the crosslinker. […]
substance,measurement,setting,value
"N,N-dimethyl-N,N-dipropylene bis(4-azido-2,3,5,6-tetrafluorobenzamide) ammonium iodide",developed film thickness (normalized to thickness before development),"PSSH film from MeOH, 10 wt % crosslinker, 254-nm DUV 200 mJ cm^-2, developed with H2O",0.92
same,exposure dose required for exhaustive reaction,"PSSH film, 254-nm DUV",100-150 mJ cm^-2
